These are yes or no findings as the source states them, for the method shown. Binding seen in cells or lysates may run through a third protein. Some entries that bind do so weakly or less than the wild type.
Molecular target: Salt inducible kinase 2 (SIK2) (human (endogenous in SKOV-3)) (UniProt Q9H0K1)
Experiment: co-IP; immunoprecipitation with SIK2 specific antibodies from SKOV-3 cells (G2-synchronized; also unsynchronized or G2 cells treated with MRIA9); precipitates and 5% of the input immunoblotted

Chains of the proteins cited; added tags and fusions are not shown.
UniProt Q9H0K1: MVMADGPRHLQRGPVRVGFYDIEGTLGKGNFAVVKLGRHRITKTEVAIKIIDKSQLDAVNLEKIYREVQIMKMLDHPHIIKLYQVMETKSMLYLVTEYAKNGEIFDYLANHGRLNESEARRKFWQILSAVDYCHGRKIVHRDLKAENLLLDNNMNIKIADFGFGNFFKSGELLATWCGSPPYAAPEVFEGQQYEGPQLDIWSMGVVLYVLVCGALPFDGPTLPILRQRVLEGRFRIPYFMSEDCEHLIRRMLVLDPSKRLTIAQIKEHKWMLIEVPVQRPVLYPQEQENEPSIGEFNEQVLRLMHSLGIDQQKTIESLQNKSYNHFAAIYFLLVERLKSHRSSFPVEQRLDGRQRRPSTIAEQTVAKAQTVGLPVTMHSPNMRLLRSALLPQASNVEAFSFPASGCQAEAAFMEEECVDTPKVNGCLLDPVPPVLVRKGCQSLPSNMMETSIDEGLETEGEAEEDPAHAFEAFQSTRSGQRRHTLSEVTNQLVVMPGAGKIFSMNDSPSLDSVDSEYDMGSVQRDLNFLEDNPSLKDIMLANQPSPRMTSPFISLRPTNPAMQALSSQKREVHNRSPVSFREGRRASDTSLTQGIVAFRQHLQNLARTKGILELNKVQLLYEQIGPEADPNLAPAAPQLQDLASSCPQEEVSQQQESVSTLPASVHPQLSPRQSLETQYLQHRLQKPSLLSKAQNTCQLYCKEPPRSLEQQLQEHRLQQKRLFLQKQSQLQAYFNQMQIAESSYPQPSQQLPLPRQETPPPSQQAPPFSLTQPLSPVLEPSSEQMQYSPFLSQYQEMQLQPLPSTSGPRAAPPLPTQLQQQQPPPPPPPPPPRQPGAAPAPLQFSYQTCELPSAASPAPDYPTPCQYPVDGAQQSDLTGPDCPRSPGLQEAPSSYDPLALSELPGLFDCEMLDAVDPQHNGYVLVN
UniProt Q15691: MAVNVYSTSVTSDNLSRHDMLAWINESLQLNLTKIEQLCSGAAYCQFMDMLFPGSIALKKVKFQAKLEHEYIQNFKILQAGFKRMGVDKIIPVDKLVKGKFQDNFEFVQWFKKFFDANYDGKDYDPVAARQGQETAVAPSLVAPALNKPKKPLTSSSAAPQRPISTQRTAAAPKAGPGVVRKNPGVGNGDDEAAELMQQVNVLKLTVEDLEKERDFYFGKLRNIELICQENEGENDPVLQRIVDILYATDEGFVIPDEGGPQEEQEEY

| Molecule | binding |
| --- | --- |
| End binding protein 1 (EB1) (from UniProt Q15691 1-268) | binds |
| KIF18B (protein, UniProt Q86Y91 1-852) MAVEDSTLQVVVRVRPPTPRELDSQRRPVVQVVDERVLVFNPEEPDGGFPGLKWGGTHDGPKKKGKDLTFVFDRVFGEAATQQDVFQHTTHSVLDSFLQGYNCSVFAYGATGAGKTHTMLGREGDPGIMYLTTVELYRRLEARQQEKHFEVLISYQEVYNEQIHDLLEPKGPLAIREDPDKGVVVQGLSFHQPASAEQLLEILTRGNRNRTQHPTDANATSSRSHAIFQIFVKQQDRVPGLTQAVQVAKMSLIDLAGSERASSTHAKGERLREGANINRSLLALINVLNALADAKGRKTHVPYRDSKLTRLLKDSLGGNCRTVMIAAISPSSLTYEDTYNTLKYADRAKEIRLSLKSNVTSLDCHISQYATICQQLQAEVAALRKKLQVYEGGGQPPPQDLPGSPKSGPPPEHQPCTPELPAGPRALQEESLGMEAQVERAMEGNSSDQEQSPEDEDEGPAEEVPTQMPEQNPTHALPESPRLTLQPKPVVGHFSARELDGDRSKQLALKVLCVAQRQYSLLQAANLLTPDMITEFETLQQLVQEEKIEPGAEALRTSGLARGAPLAQELCSESIPVPSPLCPEPPGYTGPVTRTMARRLSGPLHTLGIPPGPNCTPAQGSRWPMEKKRRRPSALEADSPMAPKRGTKRQRQSFLPCLRRGSLPDTQPSQGPSTPKGERASSPCHSPRVCPATVIKSRVPLGPSAMQNCSTPLALPTRDLNATFDLSEEPPSKPSFHECIGWDKIPQELSRLDQPFIPRAPVPLFTMKGPKPTSSLPGTSACKKKRVASSSVSHGRSRIARLPSSTLKRPAGPLVLPELPLSPLCPSNRRNGKDLIRVGRALSAGNGVTKVS | binds |

Source: publication PMC8345098
